Test results taken from the RNAGym collection of RNA variant scans (doi:10.1126/science.aae0568).
Variants at the floor of the assay are shown more often than the library holds them.

B1: tRNA (parent)
chain: GUUCCGUUGGCGUAAUGGUAACGCGUCUCCCUCCUAAGGAGAAGACUGCGGGUUCGAGUCCCGUACGGAACG

Variants of: B1
Test: yeast fitness relative to wild type (ratio to wild type); higher = fitter; tRNA-Arg(CCU), competitive growth, 37 C, YPD
Summary of the method: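 Variants of the tRNA-Arg(CCU) gene, chemically synthesised with a 3% per-site mutation rate at 69 sites, were placed at the native genomic locus in Saccharomyces cerevisiae. The pooled strains were competed in YPD at 37°C for 24 hours in six parallel replicates. Gene amplicons from the start population and from each end population were read by 100-nucleotide paired-end sequencing. Darwinian fitness relative to wild type came from changes in genotype frequencies; genotypes needed ≥ 100 starting reads, and estimates < 0.5 were set to 0.5.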

Yeast fitness, ≤ 0.5:
GUACCGUUGGGGUAAUGGUAACGCGUCUCCCUCUUAGGGAGAAGAUUGCGGGUUCGAGUCACGUACGGAACG [U3A C11G C34U A37G C46U C61A]
GUUCCGUUGCCGUAAGGGUAACGCGUCUCCAGCCUAAGGAGAAGACUGCGGGUUCGAGUCCCGUAAGGAACG [G10C U16G C31A U32G C66A]
GUUCCGUUGGCGUAAUGGUAACGCCUCUCGCUCCUAAGGAGAAGACUGCGGGUUCGAGUCCUGUACGGAACG [G25C C30G C62U]
GUUCCGUUGGCGUAAUGGUAACGCGCCUCCCUCCCAAGGAGAAGACUGAGGGUUCGAGUCCCGUACGGAACG [U26C U35C C49A]
GAUCCGUUGGCGUAAUGGUAACGUGUCUCCCUCCUAUGGAGAAGACUGCGGGUUCGAGUCCCGUACGGAACG [U2A C24U A37U]
GUUCCGUUGGCGUAAUGGUUACGCGUCUCCCUCCUAAGGAGAGGACUGCGGGUUCGACUCCUGUACGGAACG [A20U A43G G58C C62U]
GUUCCGUUGGCGUAAUGGUAACGCGUCUCCCUCUUAAGGAGAAGACUGCGGCUUCGUGUCCCGUACGGAACG [C34U G52C A57U]
GUUCCGUUGACGUAAUGGUAACGGGUCUCCCUCCUAAGGAGAAGACUGCGGGUUCGAGUCCUGUGCGGAACG [G10A C24G C62U A65G]
GUUCCGUUCGCGUAAUGGUAACGUGUCUCCCUCCUAAGGAGAAGACUCCGAGUUCGAGUCCCGUACGGAACG [G9C C24U G48C G51A]
GUUCCAUUGGGGUAAUGGUGACGCGUCUCCCUCCUAAGGAGAAGACUGCGGGUUCGAGUCCCGUACGGAACG [G6A C11G A20G]
GUUACGUUGGCGUAAUGGUUGCGCGUGUCCCUCCUAAGGAGAAGACUGCGGGUUCGAGUCCCGUACGGAACG [C4A A20U A21G C27G]
GUUCCGUUGGCGUGAUGGUAACUCGUCUCCCUCCUAAGGAGAAGACUGCGGGUUCGAAUCCCGUACGGAACG [A14G G23U G58A]
GUUUCGUUGCCGUAAUGGUAACACGCCUCCCCCCUAAGGAGAGGACUGCGGGAUCGAGUCCCGUACGGAACG [C4U G10C G23A U26C U32C A43G U53A]
GUUCCGUCGGCGUAAUGGUAACGCGUCUACCUCCUCAGGAGAAGACUGCGGGCUCGAGUCCCGUACGGAACG [U8C C29A A36C U53C]
GUUCCGUUGGCGUAAUGGUAACGCGUCUCUCUCCUAAGGAGAAGACUGGCGGUUCGAGUCCCGUUCGGAACG [C30U C49G G50C A65U]
GGUCCGUUGGCGUAAUAGUGACGCGUGUCCCUCCUCAGGAGAAGACUGCGGGAUCGAGUCCCGUACGGAACG [U2G G17A A20G C27G A36C U53A]
GUUCCGUUGGCGCAAUGGUAACGCGUCUACCUCCUAAGGAGAAGACUGCGGGUUCGAGUGCCGUACGGAACG [U13C C29A C60G]
GUUUCGUUGGCGAAAUGGUAACGCGUCUCCCUCCUAAGGAGAAGACUGCGGGUUCGAGUCCCGUACGCAACG [C4U U13A G68C]
GUUCCGUUGGCGUAAUGGUAACGCGUCUCCCUUCUAAGGAGAAGACUGAGGGUUCGAGUCCCGUCCGGAACG [C33U C49A A65C]
GUUCCGUGGGCGUAAAGGUAACGCGUCUCCCUCCUAAGGACAAGACUGCGGGUUCGAGUCCCGUACGGAACG [U8G U16A G41C]
GUUCCGUUGGUGUAAUGGUAACGCGUCUGCCUCGUAAGGAGAAGACUGCGGGUUCGAGUCCUGUACGGCACG [C11U C29G C34G C62U A69C]
GUUCCGUUGCCGUAAUGGUAUCGCGUCUCCGUCGUAAGGAGAAGACUGCGGGUUCGAGUCCCGUACGGAACG [G10C A21U C31G C34G]
GUUCCGUUGGCGUAAUGGUAACGCGUCUCCCUCCUAAGGACACGACUGCGGGUUCGAGUCCCGUAUGGAACG [G41C A43C C66U]
GUUCCGUUUGCGUAAGGGUAACGCGUCUCCCUCCUAAGGAGAAGACUGCGGGUUCGAGUCCAGUACCGAACG [G9U U16G C62A G67C]
GUUCCCUUGGCGUAAUGGUACCGCGUCUCCCUCCUAAGGAGAAGACUGCGGGUUCAAGUCCCGUACGGAACG [G6C A21C G56A]
GUUCCGUUCGCGUAGUGGUAACGCGCCCCCCUCCUAAGGAGAAGACUGCGGGUUCGAGUCCCGUACGGAACG [G9C A15G U26C U28C]
GUUCCGUUGGAGUAAUGGUAACGCCUCUCCCUCCUAAGGAGAAGUCUGCGGGUUCGAGUCCCGUAUGGAACG [C11A G25C A45U C66U]
GUUCCGUUGGCGUAAUGGUACCGCGUCUCCUUCCUAAACAGAAGACUGCGGGUUCGGGUCCCGUACGGAACG [A21C C31U G38A G39C A57G]
GUUCCGUUGGCGUAAUGGUAACGCGUCUCGCUCCUAAGGAGAAGACAGCGGCUUCGAGUCCCGUACGGAACG [C30G U47A G52C]
GUUCCGUUGACGUAAUGGUAACGCGUCUCCCUCCUACGGAGAAGACUGCGGGUUGGAGUCCCAUACGGAACG [G10A A37C C55G G63A]
GUUCCGUGGGCGUAAUGGUAACGGGUCUCCCUCCUAAGGAGAAGACUGCGGGUUCGAGUCCCGUAAGGAACG [U8G C24G C66A]
GUUCAGUUGGCGUAAUCGUAACGCGUCUCCCUCCUAAGGAGAAGACUGCCGGUUCGAGUUCAGUACGGAACG [C5A G17C G50C C60U C62A]
GUUCCGUUGGCCUAAUGGUAACGCGUUUCCCUCCUAAGGAGAAGACUGCAGGUUCGAGUCCCGUACGGAACG [G12C C27U G50A]

Yeast fitness, 0.6:
GUUGCGUUGGCGUAAUGGUCACGCGUCUCCCUCCUAAGGGGAAGACUGCGGCUUCGAGUCCCGUACGGAACG [C4G A20C A40G G52C]

Yeast fitness, 0.644:
GUUCCCUUGGCGUAAUGGUAACGCGUCGCCCUCCUAAGGAGAAGACUGCGGGUUCGAGUCCCGUACGGAACG [G6C U28G]

Yeast fitness, 0.659:
GUUCCGUUGGCGUAAUGGUAAGGCCUCUCCCUCCUAAGGAGAAGACUGCGGGUUCGAGUCGCGUACGGAACG [C22G G25C C61G]

Yeast fitness, 0.575:
GUUCCGUUGGCGUAAUGGUAACGCGUCUCCCCCCUAGGGAGAAGACUGCGGGUUAGAGUCCCGUUCGCAACG [U32C A37G C55A A65U G68C]

Yeast fitness, 0.678:
GUUCCGUUGGCGUAAUGGUAACGCCUAUCCCUCCUAAGGAGAAGACUGCGGGUUCGAGUCCCGUACGGAACG [G25C C27A]
